# Data as given in patent US20260035464A1.
# Chains of the proteins cited; added tags and fusions are not shown. Lines headed by an entry give the natural chain unless they say otherwise; changes in a name come on top. Residues count along the entry.
# UniProt Q7Z6A9, residues 31-289: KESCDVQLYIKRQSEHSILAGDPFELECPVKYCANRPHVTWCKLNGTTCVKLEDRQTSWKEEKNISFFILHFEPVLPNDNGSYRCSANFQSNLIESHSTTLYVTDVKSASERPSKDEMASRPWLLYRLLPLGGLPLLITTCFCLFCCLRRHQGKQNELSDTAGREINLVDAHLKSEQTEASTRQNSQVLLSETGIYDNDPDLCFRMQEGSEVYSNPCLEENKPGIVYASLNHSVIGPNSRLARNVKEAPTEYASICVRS
# UniProt Q80WM9, residues 39-206: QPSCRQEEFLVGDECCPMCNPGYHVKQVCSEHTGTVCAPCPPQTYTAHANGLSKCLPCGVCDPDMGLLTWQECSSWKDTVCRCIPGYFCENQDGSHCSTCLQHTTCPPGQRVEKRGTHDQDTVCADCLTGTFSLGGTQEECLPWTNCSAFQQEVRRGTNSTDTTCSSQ
# Results are given in words; binding and its absence hold for the method and conditions named. Some binding calls cover weakened binding; strength is not graded here.
# How the values were obtained:
# [1] = molecular target: human BTLA (Uniprot Q7Z6A9) expressed on cells (human) (UniProt Q7Z6A9); experiment: flow cytometry, His-mouse HVEM on Expi293-huBTLA cells, PE anti-His
# [2] = molecular target: human BTLA (Uniprot Q7Z6A9) expressed on cells (human) (UniProt Q7Z6A9); experiment: flow cytometry, His-mouse HVEM on Expi293-huBTLA cells, PE anti-His antibody, MFI
substance,measurement,setting,value
"His-mouse HVEM protein (Sino Biological, cat #10567-M03H) (from UniProt Q80WM9 39-206) (ligand)",binding,[1],binds
same,binding,[2],binds
